The list shows a part of the results. Most entries show no effect beyond the scatter of the controls.

Amino acid sequences for entries named in this document (tags omitted). A change or cut given only in a name is not applied to a line headed by its entry.
UniProt Q99JX4, whole entry: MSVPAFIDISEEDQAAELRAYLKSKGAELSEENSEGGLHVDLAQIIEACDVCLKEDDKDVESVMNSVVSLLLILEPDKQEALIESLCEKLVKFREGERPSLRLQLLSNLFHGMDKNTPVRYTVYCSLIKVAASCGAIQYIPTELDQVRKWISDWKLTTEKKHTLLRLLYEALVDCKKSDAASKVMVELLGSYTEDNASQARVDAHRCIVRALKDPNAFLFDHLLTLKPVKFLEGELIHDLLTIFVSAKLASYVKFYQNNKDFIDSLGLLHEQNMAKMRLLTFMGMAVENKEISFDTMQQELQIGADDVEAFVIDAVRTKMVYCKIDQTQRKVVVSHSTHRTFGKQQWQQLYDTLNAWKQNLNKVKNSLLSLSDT
UniProt Q99KN2: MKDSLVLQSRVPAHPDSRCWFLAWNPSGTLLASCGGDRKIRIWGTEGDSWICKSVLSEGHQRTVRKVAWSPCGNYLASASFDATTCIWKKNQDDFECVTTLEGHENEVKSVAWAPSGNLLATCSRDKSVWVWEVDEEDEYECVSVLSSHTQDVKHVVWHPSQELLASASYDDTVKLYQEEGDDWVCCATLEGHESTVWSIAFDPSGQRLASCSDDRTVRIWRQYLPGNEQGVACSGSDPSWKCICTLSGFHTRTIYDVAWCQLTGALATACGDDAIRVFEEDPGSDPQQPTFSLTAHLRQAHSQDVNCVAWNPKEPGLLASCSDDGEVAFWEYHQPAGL
UniProt Q9CPU0: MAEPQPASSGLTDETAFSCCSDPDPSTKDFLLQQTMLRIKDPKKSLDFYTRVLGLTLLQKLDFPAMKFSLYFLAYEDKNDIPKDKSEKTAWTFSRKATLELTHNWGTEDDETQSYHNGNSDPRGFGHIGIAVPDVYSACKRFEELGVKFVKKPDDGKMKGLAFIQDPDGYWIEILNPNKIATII
UniProt Q99LB2: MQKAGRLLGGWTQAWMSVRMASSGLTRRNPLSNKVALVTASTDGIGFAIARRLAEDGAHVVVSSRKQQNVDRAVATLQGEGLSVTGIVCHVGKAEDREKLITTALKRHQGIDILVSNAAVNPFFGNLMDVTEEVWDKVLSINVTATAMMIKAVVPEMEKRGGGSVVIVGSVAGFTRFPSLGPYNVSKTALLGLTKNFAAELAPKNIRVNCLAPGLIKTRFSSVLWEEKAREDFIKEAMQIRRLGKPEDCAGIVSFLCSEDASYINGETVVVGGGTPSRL
UniProt Q9CPW3: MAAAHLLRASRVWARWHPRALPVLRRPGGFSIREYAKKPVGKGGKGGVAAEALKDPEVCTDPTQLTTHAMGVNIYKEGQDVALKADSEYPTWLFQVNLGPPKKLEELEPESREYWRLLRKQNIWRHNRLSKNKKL
UniProt Q9CWB7: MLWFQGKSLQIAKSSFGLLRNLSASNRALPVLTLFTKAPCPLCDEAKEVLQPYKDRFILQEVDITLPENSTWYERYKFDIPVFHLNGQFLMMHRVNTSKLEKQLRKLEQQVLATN
UniProt Q99JF8: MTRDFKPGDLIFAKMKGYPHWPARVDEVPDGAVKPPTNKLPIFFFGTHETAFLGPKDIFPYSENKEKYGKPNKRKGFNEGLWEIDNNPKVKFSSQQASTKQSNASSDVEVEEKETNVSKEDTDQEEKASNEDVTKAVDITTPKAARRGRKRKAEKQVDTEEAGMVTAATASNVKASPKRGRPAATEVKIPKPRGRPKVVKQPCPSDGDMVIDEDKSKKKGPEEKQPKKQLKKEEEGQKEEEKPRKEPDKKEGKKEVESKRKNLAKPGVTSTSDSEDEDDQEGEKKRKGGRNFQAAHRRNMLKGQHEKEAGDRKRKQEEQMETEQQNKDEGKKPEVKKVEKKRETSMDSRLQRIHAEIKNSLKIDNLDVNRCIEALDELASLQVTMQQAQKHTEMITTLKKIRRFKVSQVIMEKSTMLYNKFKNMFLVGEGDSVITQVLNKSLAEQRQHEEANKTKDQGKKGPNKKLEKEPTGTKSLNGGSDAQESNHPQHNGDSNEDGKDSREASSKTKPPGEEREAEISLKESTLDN
UniProt Q9CQ80: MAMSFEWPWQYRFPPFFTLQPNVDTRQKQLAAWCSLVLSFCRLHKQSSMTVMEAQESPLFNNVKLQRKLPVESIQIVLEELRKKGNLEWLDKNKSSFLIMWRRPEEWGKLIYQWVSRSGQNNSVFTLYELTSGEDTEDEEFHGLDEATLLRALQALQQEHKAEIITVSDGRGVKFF
UniProt Q9CQX2: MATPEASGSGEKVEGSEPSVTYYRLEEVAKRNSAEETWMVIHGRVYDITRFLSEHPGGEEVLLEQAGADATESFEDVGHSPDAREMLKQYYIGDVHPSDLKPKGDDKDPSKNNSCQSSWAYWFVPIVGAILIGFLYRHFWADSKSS
UniProt Q9CQS8, whole entry: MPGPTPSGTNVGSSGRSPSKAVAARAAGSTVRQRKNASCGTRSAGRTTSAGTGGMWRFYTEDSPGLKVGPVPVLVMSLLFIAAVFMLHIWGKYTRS
UniProt Q99MD9, whole entry: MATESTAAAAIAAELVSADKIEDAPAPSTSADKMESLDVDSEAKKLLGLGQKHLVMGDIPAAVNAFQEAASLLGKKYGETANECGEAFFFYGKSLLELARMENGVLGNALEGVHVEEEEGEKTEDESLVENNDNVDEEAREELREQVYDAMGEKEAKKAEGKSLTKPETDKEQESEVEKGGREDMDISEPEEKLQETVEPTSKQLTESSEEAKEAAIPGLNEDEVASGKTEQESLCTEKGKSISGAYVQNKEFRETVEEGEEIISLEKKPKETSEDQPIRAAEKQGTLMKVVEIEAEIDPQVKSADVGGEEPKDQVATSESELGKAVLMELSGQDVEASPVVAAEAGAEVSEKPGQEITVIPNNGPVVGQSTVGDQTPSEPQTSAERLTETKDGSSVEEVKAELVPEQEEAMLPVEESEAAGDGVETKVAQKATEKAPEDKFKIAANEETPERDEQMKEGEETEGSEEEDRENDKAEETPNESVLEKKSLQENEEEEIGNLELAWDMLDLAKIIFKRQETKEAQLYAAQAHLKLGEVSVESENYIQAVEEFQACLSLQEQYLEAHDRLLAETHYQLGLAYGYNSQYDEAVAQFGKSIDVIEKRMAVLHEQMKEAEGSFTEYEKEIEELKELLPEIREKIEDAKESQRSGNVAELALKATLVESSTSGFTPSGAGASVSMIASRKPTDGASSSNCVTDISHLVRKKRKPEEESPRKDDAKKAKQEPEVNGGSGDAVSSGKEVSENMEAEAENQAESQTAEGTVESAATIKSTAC
UniProt Q9CT10: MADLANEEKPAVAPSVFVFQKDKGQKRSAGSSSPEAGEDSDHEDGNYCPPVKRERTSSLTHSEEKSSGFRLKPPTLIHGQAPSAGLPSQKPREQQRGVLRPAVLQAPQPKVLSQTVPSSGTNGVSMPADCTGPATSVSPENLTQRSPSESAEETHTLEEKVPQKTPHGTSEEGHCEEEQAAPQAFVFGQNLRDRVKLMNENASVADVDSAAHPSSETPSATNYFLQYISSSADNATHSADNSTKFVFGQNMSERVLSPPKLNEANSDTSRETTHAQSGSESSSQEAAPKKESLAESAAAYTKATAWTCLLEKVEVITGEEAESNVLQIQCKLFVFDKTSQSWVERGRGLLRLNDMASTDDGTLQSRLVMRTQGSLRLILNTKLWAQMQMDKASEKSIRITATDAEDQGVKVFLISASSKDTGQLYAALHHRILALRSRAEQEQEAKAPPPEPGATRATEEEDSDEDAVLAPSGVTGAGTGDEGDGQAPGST
UniProt Q9CWW6, whole entry: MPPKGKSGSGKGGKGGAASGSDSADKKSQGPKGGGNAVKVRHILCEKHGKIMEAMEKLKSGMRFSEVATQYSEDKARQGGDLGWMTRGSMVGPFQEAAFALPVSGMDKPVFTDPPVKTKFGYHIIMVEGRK
UniProt Q99MW1: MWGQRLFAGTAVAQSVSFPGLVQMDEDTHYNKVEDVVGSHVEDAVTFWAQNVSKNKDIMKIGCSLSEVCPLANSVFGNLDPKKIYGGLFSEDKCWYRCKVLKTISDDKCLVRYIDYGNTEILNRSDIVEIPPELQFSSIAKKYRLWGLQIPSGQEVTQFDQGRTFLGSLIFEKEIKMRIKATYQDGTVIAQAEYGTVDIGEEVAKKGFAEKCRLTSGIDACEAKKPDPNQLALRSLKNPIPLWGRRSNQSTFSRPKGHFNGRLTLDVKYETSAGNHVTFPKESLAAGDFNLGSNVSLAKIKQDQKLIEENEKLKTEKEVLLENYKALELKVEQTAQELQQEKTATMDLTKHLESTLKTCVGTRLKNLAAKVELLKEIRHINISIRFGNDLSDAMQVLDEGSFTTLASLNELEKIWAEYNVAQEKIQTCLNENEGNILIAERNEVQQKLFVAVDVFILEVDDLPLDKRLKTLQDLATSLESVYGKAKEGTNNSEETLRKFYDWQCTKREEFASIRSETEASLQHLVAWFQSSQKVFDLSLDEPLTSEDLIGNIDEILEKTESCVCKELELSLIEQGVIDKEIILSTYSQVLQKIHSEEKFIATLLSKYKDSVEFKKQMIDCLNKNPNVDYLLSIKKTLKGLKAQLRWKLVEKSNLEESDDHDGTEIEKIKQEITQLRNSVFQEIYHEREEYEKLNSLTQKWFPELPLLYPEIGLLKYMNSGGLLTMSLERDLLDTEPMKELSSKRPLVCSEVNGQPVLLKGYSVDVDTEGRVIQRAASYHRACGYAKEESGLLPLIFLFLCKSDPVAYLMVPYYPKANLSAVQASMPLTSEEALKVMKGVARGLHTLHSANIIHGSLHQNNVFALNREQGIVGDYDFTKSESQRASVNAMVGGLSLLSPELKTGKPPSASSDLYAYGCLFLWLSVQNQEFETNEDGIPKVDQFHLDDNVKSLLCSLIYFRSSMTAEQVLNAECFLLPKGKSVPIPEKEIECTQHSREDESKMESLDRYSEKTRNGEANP
UniProt Q99KR3: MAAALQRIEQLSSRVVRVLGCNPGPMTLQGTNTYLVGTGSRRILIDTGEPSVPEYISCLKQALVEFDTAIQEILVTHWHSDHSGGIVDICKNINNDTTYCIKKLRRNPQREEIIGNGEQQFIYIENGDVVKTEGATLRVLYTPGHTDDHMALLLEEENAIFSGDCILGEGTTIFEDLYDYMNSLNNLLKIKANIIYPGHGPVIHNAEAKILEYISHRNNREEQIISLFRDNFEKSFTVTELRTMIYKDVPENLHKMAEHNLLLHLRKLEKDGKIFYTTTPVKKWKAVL
UniProt Q99L85: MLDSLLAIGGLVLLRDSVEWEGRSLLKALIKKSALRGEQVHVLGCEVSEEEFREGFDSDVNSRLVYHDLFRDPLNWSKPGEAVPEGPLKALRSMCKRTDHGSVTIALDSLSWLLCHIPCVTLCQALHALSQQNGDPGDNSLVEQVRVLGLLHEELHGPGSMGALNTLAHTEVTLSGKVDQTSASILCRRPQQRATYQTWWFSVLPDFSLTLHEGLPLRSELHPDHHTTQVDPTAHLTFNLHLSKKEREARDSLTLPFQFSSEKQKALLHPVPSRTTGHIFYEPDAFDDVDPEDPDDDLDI
UniProt Q9CRG1: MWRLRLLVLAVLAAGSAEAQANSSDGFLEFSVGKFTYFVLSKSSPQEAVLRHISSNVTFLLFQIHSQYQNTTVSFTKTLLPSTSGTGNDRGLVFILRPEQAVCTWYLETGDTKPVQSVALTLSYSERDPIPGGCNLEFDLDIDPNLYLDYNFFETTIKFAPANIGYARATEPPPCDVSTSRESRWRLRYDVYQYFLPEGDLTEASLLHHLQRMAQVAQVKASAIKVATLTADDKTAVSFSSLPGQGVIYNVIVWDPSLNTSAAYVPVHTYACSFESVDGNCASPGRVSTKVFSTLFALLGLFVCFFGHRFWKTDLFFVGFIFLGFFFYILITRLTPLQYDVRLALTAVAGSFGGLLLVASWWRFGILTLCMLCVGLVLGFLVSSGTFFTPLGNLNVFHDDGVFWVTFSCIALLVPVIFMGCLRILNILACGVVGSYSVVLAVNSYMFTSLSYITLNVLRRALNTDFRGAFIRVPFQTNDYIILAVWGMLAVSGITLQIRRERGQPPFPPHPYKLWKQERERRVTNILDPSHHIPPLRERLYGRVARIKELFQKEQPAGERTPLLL
UniProt Q99LC5: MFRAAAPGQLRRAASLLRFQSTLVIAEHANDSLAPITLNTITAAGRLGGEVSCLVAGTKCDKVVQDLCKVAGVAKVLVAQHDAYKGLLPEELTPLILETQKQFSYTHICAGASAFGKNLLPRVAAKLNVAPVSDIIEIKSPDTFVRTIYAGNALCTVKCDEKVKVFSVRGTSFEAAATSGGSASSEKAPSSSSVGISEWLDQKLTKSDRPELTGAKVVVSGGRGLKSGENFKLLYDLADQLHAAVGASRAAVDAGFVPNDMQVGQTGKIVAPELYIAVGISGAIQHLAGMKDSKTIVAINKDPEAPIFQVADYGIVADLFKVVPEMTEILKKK
UniProt Q9CRA9: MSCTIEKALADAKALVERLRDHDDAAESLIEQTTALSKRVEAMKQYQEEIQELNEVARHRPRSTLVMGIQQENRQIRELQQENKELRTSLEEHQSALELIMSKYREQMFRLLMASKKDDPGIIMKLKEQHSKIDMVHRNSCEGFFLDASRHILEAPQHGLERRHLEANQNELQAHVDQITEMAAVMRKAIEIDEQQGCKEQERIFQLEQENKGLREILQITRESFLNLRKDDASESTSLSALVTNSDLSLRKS

Compound in the assay: CN[C@@H]1C[C@H]2O[C@@](C)([C@@H]1OC)n1c3ccccc3c3c4c(c5c6ccccc6n2c5c31)C(=O)NC4 [staurosporine]
Nature of the assay: log2 fold change of pooled soluble protein (PISA), ligand vs vehicle (log2 ratio); higher = more thermally stabilized. The note with it: ligand concentration: 20 uM; assay format: PISA pool 52.9/55.5/58.6 C.
Take UniProt Q9CQZ5: the “log2 fold change of pooled soluble protein” value (“log2 fold change” below) was -0.154.

For UniProt Q9CRB6, the “log2 fold change” value worked out at 0.073.

For the target UniProt Q99JX4, the “log2 fold change” value was -0.135.

For UniProt Q99NH0, the “log2 fold change” value was -0.103.

Regarding UniProt Q99KN2, the “log2 fold change” value was determined as 0.104.

On to UniProt Q9CQ56, for which the “log2 fold change” value is -0.038.

Consider UniProt Q9CPU0, for which the “log2 fold change” value was -0.0857.

With UniProt Q99LB2, the “log2 fold change” value was -0.0145.

For the target UniProt Q9CXD6, the “log2 fold change” value was -0.00856.

Consider UniProt Q9CQN7, for which the “log2 fold change” value turned out to be 0.0577.

For the target UniProt Q9CWU4, the “log2 fold change” value was -0.142.

Regarding UniProt Q9CPW3, the “log2 fold change” value is -0.229.

As for UniProt Q9CPX6, the “log2 fold change” value stood at 0.0168.

As for UniProt Q9CWB7, the “log2 fold change” value turned out to be 0.0467.

Take UniProt Q99JF8: the “log2 fold change” value was -0.0457.

As to UniProt Q9CQ80, the “log2 fold change” value amounted to 0.000485.

As for UniProt Q9CQX2, the “log2 fold change” value came out at 0.146.

Take UniProt Q99MZ7: the “log2 fold change” value was -0.0387.

Turning to UniProt Q9CX66, the “log2 fold change” value was -0.074.

Turning to UniProt Q9CR80, the “log2 fold change” value was -0.387.

On to UniProt Q9CQS8, for which the “log2 fold change” value was found to be 0.0163.

UniProt Q99MD9: the “log2 fold change” value was determined as 0.0475.

In the case of UniProt Q9CT10, the “log2 fold change” value was -0.038.

As for UniProt Q9CWW6, the “log2 fold change” value is -0.0587.

With UniProt Q99MW1, the “log2 fold change” value is 0.143.

For UniProt Q9CR21, the “log2 fold change” value is -0.0554.

For the target UniProt Q99KR3, the “log2 fold change” value was -0.0748.

For the target UniProt Q99L85, the “log2 fold change” value turned out to be 0.194.

As for UniProt Q9CRA8, the “log2 fold change” value was -0.0297.

In the case of UniProt Q9CRG1, the “log2 fold change” value is 0.0932.

On to UniProt Q99LC5, for which the “log2 fold change” value came to 0.0166.

For UniProt Q99K95, the “log2 fold change” value was -0.00192.

Take UniProt Q99P27: the “log2 fold change” value is -0.026.

In the case of UniProt Q9CRA9, the “log2 fold change” value was found to be 0.334.

Regarding UniProt Q99LC3, the “log2 fold change” value is -0.0524.

For UniProt Q9CR98, the “log2 fold change” value amounted to 0.093.

Turning to UniProt Q9CR00, the “log2 fold change” value was 0.000508.
